Measurements from publication PMC5527848.

The chains behind the UniProt entries cited, without tags or fusion partners. Where a name states a change or a piece, a line headed by the entry shows the natural chain unless it says otherwise.
UniProt G0S867: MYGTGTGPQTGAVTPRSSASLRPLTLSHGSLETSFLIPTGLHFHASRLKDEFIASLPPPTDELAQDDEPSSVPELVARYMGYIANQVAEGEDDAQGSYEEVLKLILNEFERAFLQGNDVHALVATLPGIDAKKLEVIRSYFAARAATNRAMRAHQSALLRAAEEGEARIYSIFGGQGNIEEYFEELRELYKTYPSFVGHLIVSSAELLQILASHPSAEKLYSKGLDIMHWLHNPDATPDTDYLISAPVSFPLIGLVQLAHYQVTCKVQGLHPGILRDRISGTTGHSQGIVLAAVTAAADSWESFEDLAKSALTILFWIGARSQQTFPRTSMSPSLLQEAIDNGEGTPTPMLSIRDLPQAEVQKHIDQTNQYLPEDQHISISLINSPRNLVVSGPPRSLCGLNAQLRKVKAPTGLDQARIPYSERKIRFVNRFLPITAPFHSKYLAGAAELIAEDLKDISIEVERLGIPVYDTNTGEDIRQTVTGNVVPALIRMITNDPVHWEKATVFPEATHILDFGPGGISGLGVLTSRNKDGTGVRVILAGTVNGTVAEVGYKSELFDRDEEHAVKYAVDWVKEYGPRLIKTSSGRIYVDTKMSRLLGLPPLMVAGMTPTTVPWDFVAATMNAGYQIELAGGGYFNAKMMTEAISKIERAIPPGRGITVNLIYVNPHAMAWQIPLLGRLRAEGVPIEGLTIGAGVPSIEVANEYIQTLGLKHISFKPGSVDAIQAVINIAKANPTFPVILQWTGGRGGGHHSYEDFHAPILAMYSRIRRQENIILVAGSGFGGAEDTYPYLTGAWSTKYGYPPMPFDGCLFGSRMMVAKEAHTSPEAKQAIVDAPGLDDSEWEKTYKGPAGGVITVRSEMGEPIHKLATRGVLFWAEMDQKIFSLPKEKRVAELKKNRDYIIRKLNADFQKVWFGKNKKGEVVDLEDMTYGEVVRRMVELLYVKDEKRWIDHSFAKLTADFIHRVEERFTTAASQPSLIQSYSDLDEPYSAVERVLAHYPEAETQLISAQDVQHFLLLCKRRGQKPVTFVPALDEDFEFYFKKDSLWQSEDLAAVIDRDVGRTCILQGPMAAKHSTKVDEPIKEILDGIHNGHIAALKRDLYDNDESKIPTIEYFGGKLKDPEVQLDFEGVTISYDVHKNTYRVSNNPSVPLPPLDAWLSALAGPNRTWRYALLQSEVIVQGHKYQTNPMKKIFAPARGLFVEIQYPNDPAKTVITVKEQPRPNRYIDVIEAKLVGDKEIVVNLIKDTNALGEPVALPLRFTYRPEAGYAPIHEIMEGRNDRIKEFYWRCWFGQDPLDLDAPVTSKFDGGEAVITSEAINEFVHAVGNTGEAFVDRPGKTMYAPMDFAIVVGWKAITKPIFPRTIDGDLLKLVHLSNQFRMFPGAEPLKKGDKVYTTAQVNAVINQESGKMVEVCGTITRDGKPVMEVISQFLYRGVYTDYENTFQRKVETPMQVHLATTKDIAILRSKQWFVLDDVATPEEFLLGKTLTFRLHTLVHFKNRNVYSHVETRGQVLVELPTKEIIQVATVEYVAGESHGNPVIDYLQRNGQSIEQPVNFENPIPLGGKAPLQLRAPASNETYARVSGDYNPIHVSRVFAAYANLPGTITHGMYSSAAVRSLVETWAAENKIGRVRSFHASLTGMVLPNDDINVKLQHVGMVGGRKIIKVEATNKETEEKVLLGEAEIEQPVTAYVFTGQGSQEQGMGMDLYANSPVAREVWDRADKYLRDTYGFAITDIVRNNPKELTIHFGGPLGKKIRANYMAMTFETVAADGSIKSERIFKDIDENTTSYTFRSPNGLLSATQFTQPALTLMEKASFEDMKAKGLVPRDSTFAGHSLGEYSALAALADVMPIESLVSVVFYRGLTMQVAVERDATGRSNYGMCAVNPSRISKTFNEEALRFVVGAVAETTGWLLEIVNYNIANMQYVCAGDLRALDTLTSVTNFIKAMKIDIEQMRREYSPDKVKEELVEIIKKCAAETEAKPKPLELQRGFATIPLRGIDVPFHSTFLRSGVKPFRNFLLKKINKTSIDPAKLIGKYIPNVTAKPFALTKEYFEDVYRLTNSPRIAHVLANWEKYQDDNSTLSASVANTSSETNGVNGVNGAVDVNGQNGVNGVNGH
UniProt G0S866: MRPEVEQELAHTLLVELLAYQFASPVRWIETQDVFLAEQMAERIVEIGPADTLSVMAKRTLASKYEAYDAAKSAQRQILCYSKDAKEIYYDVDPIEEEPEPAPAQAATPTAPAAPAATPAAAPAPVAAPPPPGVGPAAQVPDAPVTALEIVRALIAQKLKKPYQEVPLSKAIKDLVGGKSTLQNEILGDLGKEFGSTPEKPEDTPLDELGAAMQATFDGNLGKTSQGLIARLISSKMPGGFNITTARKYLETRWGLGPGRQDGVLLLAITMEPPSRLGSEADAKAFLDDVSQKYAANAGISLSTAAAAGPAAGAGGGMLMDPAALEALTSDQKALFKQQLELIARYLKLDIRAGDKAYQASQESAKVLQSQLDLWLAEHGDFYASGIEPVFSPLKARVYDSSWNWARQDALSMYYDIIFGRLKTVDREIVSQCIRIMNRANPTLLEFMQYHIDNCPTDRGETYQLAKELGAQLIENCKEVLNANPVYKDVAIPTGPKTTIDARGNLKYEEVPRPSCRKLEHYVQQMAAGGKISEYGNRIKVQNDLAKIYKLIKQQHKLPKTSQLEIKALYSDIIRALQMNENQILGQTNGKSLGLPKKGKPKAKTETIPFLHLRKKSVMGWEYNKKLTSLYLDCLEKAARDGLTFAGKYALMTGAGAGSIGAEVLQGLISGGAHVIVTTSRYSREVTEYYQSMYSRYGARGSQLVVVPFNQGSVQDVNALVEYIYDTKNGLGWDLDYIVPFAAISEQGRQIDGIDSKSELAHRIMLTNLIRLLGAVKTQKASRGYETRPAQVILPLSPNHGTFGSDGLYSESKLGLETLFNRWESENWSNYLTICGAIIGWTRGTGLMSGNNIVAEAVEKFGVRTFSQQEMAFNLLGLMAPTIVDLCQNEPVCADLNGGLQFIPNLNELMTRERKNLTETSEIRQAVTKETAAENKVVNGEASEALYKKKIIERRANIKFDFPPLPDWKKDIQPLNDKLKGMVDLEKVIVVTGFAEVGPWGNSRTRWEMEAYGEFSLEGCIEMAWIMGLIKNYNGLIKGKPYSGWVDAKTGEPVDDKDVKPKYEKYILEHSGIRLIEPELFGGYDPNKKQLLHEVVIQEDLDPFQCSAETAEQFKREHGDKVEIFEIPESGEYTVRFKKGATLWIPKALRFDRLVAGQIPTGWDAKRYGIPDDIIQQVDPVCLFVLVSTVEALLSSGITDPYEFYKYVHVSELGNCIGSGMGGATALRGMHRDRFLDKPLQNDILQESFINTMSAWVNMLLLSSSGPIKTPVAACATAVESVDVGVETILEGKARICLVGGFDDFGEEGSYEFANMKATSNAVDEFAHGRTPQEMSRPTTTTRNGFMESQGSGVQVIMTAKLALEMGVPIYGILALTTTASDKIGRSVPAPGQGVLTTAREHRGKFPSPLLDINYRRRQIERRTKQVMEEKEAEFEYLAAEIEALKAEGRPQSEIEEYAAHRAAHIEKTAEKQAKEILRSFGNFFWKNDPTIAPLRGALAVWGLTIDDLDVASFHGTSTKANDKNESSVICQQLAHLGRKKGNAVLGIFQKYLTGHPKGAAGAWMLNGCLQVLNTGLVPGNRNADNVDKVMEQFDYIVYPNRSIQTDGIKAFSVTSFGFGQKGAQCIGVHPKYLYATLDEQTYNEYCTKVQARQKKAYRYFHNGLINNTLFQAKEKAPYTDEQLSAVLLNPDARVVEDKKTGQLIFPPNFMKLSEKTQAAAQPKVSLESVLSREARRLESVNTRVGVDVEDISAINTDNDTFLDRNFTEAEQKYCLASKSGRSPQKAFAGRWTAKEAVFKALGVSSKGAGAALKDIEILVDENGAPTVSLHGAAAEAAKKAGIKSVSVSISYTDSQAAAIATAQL

Target: fatty acid synthase subunit CTHT_0037750 (Chaetomium thermophilum (endogenous in cell extract)) (UniProt G0S867)
Experiment: cryo-EM structure; ctFAS ~50% enriched in SEC fractions 7-9 of the cell extract, no cross-linker; 3,933 particles, 4.7 Å

binding: binds
Substance: fatty acid synthase subunit CTHT_0037740 (from UniProt G0S866) (enzyme)

Results are given in words; binding and its absence hold for the method and conditions named. Binding calls can cover weak binding; strength is not graded here.
